# Data published in PubChem BioAssay AID492954 (National Center for Advancing Translational Sciences (NCATS), 2010).
# “And” between values parts separate entries of the source, which are not always exact repeats. Identical values can stand only once. This list was built around the results that the source calls inconclusive (neither active nor inactive); the mix of calls is not that of the screen. The source made the active and inactive calls. Calls come from the whole dose curve.
# Test: Mouse Th17 T cell differentiation assay for inhibitors of ROR gamma transcriptional activity
# Conditions: mouse naive CD4 T cells Th17, IL17a-GFP flow cytometry; IL17a-GFP activity, % of control: at 20 µM (top of the series) unless noted
# Source text: NIH Molecular Libraries Probe Production Network [MLPCN] NIH Chemical Genomics Center [NCGC] MLPCN Grant: R03 DA026211-01 Assay Provider: Dan Littman, New York University Keywords: NIH Roadmap, MLPCN, MLI, MLSMR, qHTS, NCGC, qHTS, nuclear hormone receptor, retinoic acid-related orphan receptor, ROR gamma Assay Overview: The retinoic acid-related orphan receptor (ROR) gamma is a transcription factor that has a central role in the differentiation of Th17 cells, a subset of T helper cells that secrete the inflammatory cytokines IL-17a, IL-17f, and IL-22. Th17 cells have been implicated in graft versus host disease, autoimmune disease and asthma. ROR gamma is induced in naive T helper cells in the presence of TGF-beta combined with IL-6, IL-21, or IL-23, and thereafter directs the expression of the Th17 lineage cytokines. To confirm inhibition of ROR gamma, compounds were tested in a mouse Th17 T cell differentiation assay. Th17 differentiation was tracked by expression of a GFP reporter under the control of the endogenous IL-17a promoter using flow cytometry. Compounds that block ROR gamma activity prevent expression of the IL17a-GFP reporter.
# Assay Protocol Summary: Cells from lymph nodes and spleens derived from six to eight week old IL17a-GFP mice (Biocytogen LLC) were used for T cell purification. B220- cells were isolated on an autoMACS Pro with bead depletion of B220+ cells (Miltenyi). Naive CD4+ T cell were further purified as TCRb+CD8- DAPI- CD19- CD4+CD25- CD62L+CD44low/Int by cell sorting on a FACSAria (BD). Cells were cultivated in an incubator at 37 C and 5% CO2 in RPMI 1640 medium (Invitrogen) supplemented with 10% (vol/vol) heat-inactivated FBS (Hyclone), penicillin-streptomycin, 2 mM glutamine and 0.1 mM nonessential amino acids. Cells were seeded on day 0 at a density of 0.4x10^5 cells per ml in 96-well plates coated with anti-CD3e (5 ug/ml) and anti-CD28 (10 ug/ml). Cells were cultured for 4-5 days in Th17 (TGFb (0.3 ng/ml), IL6 (20 ng/ml), anti-IFN-g, and anti-IL-4) condition. At day 1, compounds dissolved in DMSO were added. GFP expression was assayed on day 4 or 5 with DAPI- and PECy7-conjugated CD4+ cells. An LSR II (BD Biosciences) and FlowJo software (Tree Star) were used for flow cytometry. Keywords: NIH Roadmap, MLPCN, MLI, MLSMR, qHTS, NCGC, qHTS, nuclear hormone receptor, retinoic acid-related orphan receptor, ROR gamma
Compound,Potency,"IL17a-GFP activity, % of control"
COc1cccc(O)c1C(CC(=O)N1CCCC(C)C1)c1ccc2c(c1)OCO2 (centres undefined),inactive,
COc1cc(O)c(C(CC(=O)N2CCCC(C(F)(F)F)C2)c2ccc3c(c2)OCO3)c(OC)c1 (centres undefined),active: 7 µM,
COc1cc(O)c(C(CC(=O)N2CC(C)CC(C)C2)c2ccc3c(c2)OCO3)c(OC)c1 (centres undefined),active: 500 nM and active: 700 nM,
COc1cc(OC)c(C(CC(=O)N2CCCC(C)C2)c2ccc3c(c2)OCO3)c(OCc2ccccc2)c1 (centres undefined),,inconclusive: 14%
COc1cc(O)c(C(CC(=O)N2CCCC(C)C2)c2ccc(C(C)C)cc2)c(OC)c1 (centres undefined),,inconclusive: 14.6%
COc1cc(O)c(C(CC(=O)N2CC(C)NC(C)C2)c2ccc3c(c2)OCO3)c(OC)c1 (centres undefined),inactive,
COc1cc(O)c(C(CC(=O)N2CCCC(C)C2)c2ccc(-c3ccccc3)cc2)c(OC)c1 (centres undefined),,inconclusive: 21%
COc1cc(O)c(C(CC(=O)N2CCCC(C)C2)c2ccccc2C)c(OC)c1 (centres undefined),inactive,
COc1cc(O)c(C(CC(=O)N2CCCC(C)C2)c2ccccc2OC)c(OC)c1 (centres undefined),,inconclusive: 208%
CCOc1ccc(O)c(C(CC(=O)N2CCCC(C)C2)c2ccc3c(c2)OCO3)c1 (centres undefined),,inconclusive: 149%
CC1CCCN(C(=O)CC(c2ccc3c(c2)OCO3)c2cc(-c3ccccc3)ccc2O)C1 (centres undefined),,inconclusive: 174% [at 6.7 µM]
COc1ccccc1C(CC(=O)N1C[C@H](C)C[C@H](C)C1)c1ccccc1 (some centres undefined),,inconclusive: 31.1%
CC1CCCN(C(=O)CC(c2ccc3c(c2)OCO3)c2ccc3ccccc3c2O)C1 (centres undefined),,inconclusive: 67.1%
COc1cc(OC)c(C(c2ccccc2)C(C)(C)C(=O)N2CC(C)CC(C)C2)c(OC)c1 (centres undefined),,inconclusive: 49.8%
COc1cc(O)c(C(CC(=O)N2CCCC(C)C2)c2ccc3ccccc3c2)c(OC)c1 (centres undefined),,inconclusive: 4.7%
COc1cc(OC)c(C(CC(=O)N2CC(C)CC(C)C2)c2ccc3c(c2)OCO3)c(OCC(N)=O)c1 (centres undefined),inactive,
COc1cc(O)c(C(CC(=O)N2CCCC(C)C2)c2ccccc2)c(OC)c1 (centres undefined),inactive,
COc1ccc(C(CC(=O)N2CCCC(C)C2)c2c(O)cc(OC)cc2OC)cc1 (centres undefined),active: 5 µM,
COc1cc(O)c(C(CC(=O)N2CCCC(C)C2)c2cccc3ccccc23)c(OC)c1 (centres undefined),,inconclusive: 46.9%
